Experimental data as given in PMC10284917.
Results are given in words; binding and its absence hold for the method and conditions named. Binding seen in cells or lysates may run through a third protein. Here binding means that the protein was enriched with, or labelled near, the bait; the list need not be complete.

By UniProt entry, the sequences of proteins in these tests, tags left out.
UniProt Q27J81: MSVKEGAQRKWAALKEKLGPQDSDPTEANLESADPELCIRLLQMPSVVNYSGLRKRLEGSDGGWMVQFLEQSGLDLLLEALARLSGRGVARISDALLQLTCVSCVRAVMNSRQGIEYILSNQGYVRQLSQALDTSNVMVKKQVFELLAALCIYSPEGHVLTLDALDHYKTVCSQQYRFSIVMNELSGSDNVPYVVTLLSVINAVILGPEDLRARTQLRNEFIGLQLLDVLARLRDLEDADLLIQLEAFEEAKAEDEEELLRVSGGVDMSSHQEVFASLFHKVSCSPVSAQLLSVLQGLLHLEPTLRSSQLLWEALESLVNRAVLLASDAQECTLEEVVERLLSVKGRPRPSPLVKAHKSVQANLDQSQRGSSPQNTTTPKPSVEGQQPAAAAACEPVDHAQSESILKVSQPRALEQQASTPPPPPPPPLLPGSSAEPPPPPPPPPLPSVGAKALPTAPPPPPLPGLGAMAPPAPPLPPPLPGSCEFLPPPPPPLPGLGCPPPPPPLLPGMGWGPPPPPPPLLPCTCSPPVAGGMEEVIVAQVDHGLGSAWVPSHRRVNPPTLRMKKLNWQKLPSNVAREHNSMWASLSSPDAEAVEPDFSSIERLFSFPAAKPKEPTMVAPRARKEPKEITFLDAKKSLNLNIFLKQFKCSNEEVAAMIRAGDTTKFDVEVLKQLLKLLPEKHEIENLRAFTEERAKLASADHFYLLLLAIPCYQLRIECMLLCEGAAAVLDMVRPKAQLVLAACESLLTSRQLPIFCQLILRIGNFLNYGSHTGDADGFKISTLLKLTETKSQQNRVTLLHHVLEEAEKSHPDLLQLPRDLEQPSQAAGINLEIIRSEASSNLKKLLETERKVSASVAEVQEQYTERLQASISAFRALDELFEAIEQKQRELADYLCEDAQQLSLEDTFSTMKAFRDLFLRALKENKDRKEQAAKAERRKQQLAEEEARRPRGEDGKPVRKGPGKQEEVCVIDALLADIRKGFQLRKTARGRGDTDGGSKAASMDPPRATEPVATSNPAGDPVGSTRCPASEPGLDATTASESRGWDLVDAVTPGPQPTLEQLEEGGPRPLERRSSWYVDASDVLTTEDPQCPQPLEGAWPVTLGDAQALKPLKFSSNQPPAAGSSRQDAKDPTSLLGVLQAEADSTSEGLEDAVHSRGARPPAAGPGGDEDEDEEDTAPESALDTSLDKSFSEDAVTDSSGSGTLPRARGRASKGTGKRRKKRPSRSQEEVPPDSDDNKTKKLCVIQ

Molecular target: FLAG-INF2 (INF2-CAXX, ER-localized inverted formin 2) (UniProt Q27J81)
Assay: affinity purification with mass spectrometry; FLAG-INF2 protein complex from HEK-293T cells; anti-FLAG M2 agarose beads, eluted with FLAG peptide, SDS-PAGE, Coomassie Blue staining, mass spectrometry

| Binder | binding |
| --- | --- |
| FBXO3 (protein, UniProt Q9UK99 1-471) MAAMETETAPLTLESLPTDPLLLILSFLDYRDLINCCYVSRRLSQLSSHDPLWRRHCKKYWLISEEEKTQKNQCWKSLFIDTYSDVGRYIDHYAAIKKAWDDLKKYLEPRCPRMVLSLKEGAREEDLDAVEAQIGCKLPDDYRCSYRIHNGQKLVVPGLLGSMALSNHYRSEDLLDVDTAAGGFQQRQGLKYCLPLTFCIHTGLSQYIAVEAAEGRNKNEVFYQCPDQMARNPAAIDMFIIGATFTDWFTSYVKNVVSGGFPIIRDQIFRYVHDPECVATTGDITVSVSTSFLPELSSVHPPHYFFTYRIRIEMSKDALPEKACQLDSRYWRITNAKGDVEEVQGPGVVGEFPIISPGRVYEYTSCTTFSTTSGYMEGYYTFHFLYFKDKIFNVAIPRFHMACPTFRVSIARLEMGPDEYEEMEEEEEEEEEEDEDDDSADMDESDEDDEEERRRRVFDVPIRRRRCSRLF | binds |
| FBXO50 (protein, UniProt Q6ZVX7 1-275) MEEVREGHALGGGMEADGPASLQELPPSPRSPSPPPSPPPLPSPPSLPSPAAPEAPELPEPAQPSEAHARQLLLEEWGPLSGGLELPQRLTWKLLLLRRPLYRNLLRSPNPEGINIYEPAPPTGPTQRPLETLGNFRGWYIRTEKLQQNQSWTVKQQCVDLLAEGLWEELLDDEQPAITVMDWFEDSRLDACVYELHVWLLAADRRTVIAQHHVAPRTSGRGPPGRWVQVSHVFRHYGPGVRFIHFLHKAKNRMEPGGLRRTRVTDSSVSVQLRE | binds |
| F-box/LRR-repeat protein 18 (FBXL18) (protein, UniProt Q96ME1 1-718) MASSGEDISNDDDDMHPAAAGMADGVHLLGFSDEILLHILSHVPSTDLILNVRRTCRKLAALCLDKSLIHTVLLQKDYQASEDKVRQLVKEIGREIQQLSMAGCYWLPGSTVEHVARCRSLVKVNLSGCHLTSLRLSKMLSALQHLRSLAIDVSPGFDASQLSSECKATLSRVRELKQTLFTPSYGVVPCCTSLEKLLLYFEILDRTREGAILSGQLMVGQSNVPHYQNLRVFYARLAPGYINQEVVRLYLAVLSDRTPQNLHAFLISVPGSFAESGATKNLLDSMARNVVLDALQLPKSWLNGSSLLQHMKFNNPFYFSFSRCTLSGGHLIQQVINGGKDLRSLASLNLSGCVHCLSPDSLLRKAEDDIDSSILETLVASCCNLRHLNLSAAHHHSSEGLGRHLCQLLARLRHLRSLSLPVCSVADSAPRADRAPAQPAMHAVPRGFGKKVRVGVQSCPSPFSGQACPQPSSVFWSLLKNLPFLEHLELIGSNFSSAMPRNEPAIRNSLPPCSRAQSVGDSEVAAIGQLAFLRHLTLAQLPSVLTGSGLVNIGLQCQQLRSLSLANLGMMGKVVYMPALSDMLKHCKRLRDLRLEQPYFSANAQFFQALSQCPSLQRLCLVSRSGTLQPDAVLAFMARCLQVVMCHLFTGESLATCKSLQQSLLRSFQAERPALNVVIFPLLHEGLTDVIRDVPLVHLDEITLFKSRVAEEPPNLWW | binds |
| FBXL20 (protein, UniProt Q96IG2 1-436) MRRDVNGVTKSRFEMFSNSDEAVINKKLPKELLLRIFSFLDVVTLCRCAQVSRAWNVLALDGSNWQRIDLFDFQRDIEGRVVENISKRCGGFLRKLSLRGCLGVGDNALRTFAQNCRNIEVLNLNGCTKTTDATCTSLSKFCSKLRHLDLASCTSITNMSLKALSEGCPLLEQLNISWCDQVTKDGIQALVRGCGGLKALFLKGCTQLEDEALKYIGAHCPELVTLNLQTCLQITDEGLITICRGCHKLQSLCASGCSNITDAILNALGQNCPRLRILEVARCSQLTDVGFTTLARNCHELEKMDLEECVQITDSTLIQLSIHCPRLQVLSLSHCELITDDGIRHLGNGACAHDQLEVIELDNCPLITDASLEHLKSCHSLERIELYDCQQITRAGIKRLRTHLPNIKVHAYFAPVTPPPSVGGSRQRFCRCCIIL | binds |
| MCM3 (protein, UniProt P25205 1-808) MAGTVVLDDVELREAQRDYLDFLDDEEDQGIYQSKVRELISDNQYRLIVNVNDLRRKNEKRANRLLNNAFEELVAFQRALKDFVASIDATYAKQYEEFYVGLEGSFGSKHVSPRTLTSCFLSCVVCVEGIVTKCSLVRPKVVRSVHYCPATKKTIERRYSDLTTLVAFPSSSVYPTKDEENNPLETEYGLSVYKDHQTITIQEMPEKAPAGQLPRSVDVILDDDLVDKAKPGDRVQVVGTYRCLPGKKGGYTSGTFRTVLIACNVKQMSKDAQPSFSAEDIAKIKKFSKTRSKDIFDQLAKSLAPSIHGHDYVKKAILCLLLGGVERDLENGSHIRGDINILLIGDPSVAKSQLLRYVLCTAPRAIPTTGRGSSGVGLTAAVTTDQETGERRLEAGAMVLADRGVVCIDEFDKMSDMDRTAIHEVMEQGRVTIAKAGIHARLNARCSVLAAANPVYGRYDQYKTPMENIGLQDSLLSRFDLLFIMLDQMDPEQDREISDHVLRMHRYRAPGEQDGDAMPLGSAVDILATDDPNFSQEDQQDTQIYEKHDNLLHGTKKKKEKMVSAAFMKKYIHVAKIIKPVLTQESATYIAEEYSRLRSQDSMSSDTARTSPVTARTLETLIRLATAHAKARMSKTVDLQDAEEAVELVQYAYFKKVLEKEKKRKKRSEDESETEDEEEKSQEDQEQKRKRRKTRQPDAKDGDSYDPYDFSDTEEEMPQVHTPKTADSQETKESQKVELSESRLKAFKVALLDVFREAHAQSIGMNRLTESINRDSEEPFSSVEIQAALSKMQDDNQVMVSEGIIFLI | binds |
